Over roughly 33,000 sequences, “E-score (-0.5 to 0.5)” has its median near -8e-05; the highest 2% begin near 0.23. This is one part of the list.

For this assay, the target named is T1, Nrg2 (UniProt P38082).
T1 sequence: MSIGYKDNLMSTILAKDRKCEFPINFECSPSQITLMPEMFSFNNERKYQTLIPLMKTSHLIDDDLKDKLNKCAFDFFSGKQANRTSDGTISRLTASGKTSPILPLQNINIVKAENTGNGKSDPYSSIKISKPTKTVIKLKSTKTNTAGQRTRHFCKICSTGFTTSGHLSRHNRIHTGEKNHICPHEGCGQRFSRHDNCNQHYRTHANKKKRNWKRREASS
Put plainly: PBM E-score (8-mer binding enrichment) (E-score (-0.5 to 0.5)); higher = stronger / more preferred TF binding. Conditions: protein concentration: 100 nM; construct: GST-full length. A digest of the protocol: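 Bound GST-tagged yeast transcription factors, applied at about 100-200 nM to double-stranded universal all-10-mer Agilent arrays, were detected with fluorescent anti-GST. Scans were normalised with masliner. A modified Wilcoxon-Mann-Whitney statistic, the E-score, was assigned to each ungapped eight-base word pooled with its reverse complement by the Universal PBM Analysis Suite.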
In the case of CGTCACGC, the “PBM E-score” value was -0.0819. For CCCGATCC the value was -0.167; for GCATTTAC, 0.00276. In the case of AATAGTTG, the “PBM E-score” value came to 0.248. The result for ACACCAAA reads 0.182; that for GCACGTGC, 0.199; that for GCTGGAAC, -0.144.

As for CGGATTCC, the “PBM E-score” value is 0.0163.

As to AGGTAACC, the “PBM E-score” value was -0.00416. Regarding ATCTTTGA, the “PBM E-score” value was determined as 0.0956. For GCCGACAA the value was 0.049. The result for AAGCCCGT reads -0.153; that for GTCTTGAA, -0.109. For AAGACTAG the value was -0.309; for CTTCAGCA, -0.106. For the sequence TAAAAACA, the “PBM E-score” value stood at 0.168.

In the case of ACCCGATG, the “PBM E-score” value worked out at 0.114. The result for GCACAGCC reads -0.12; that for CCAAACGC, -0.0177. With TGGGTAAA, the “PBM E-score” value was -0.169. The result for ACGTTGTG reads 0.0485; that for CGGCGACA, 0.0121. Regarding AATGGGAG, the “PBM E-score” value is 0.00219. For GACTCCGA the value was -0.0724; for ACGTCTCC, 0.0223. GAGAAATC: the “PBM E-score” value is 0.0887.

As for AGGTGGGA, the “PBM E-score” value was -0.169. The result for AATAAACA reads 0.0984; that for ACCGCTGA, 0.0339. For the sequence GGCATATA, the “PBM E-score” value is 0.126. Regarding GTTCCAAA, the “PBM E-score” value was 0.0625. For ACCTCGAC, the “PBM E-score” value was -0.0808. As to CTAGGGTA, the “PBM E-score” value worked out at 0.0209. The result for ATTCTATC reads 0.0609; that for AGGACACC, -0.0545; that for AATAGCAG, -0.0779.

Turning to AATCGGTG, the “PBM E-score” value is -0.0297. For GATCATGC, the “PBM E-score” value is -0.00571.

As to CGGTTTAC, the “PBM E-score” value was -0.142. Consider TTTAGAAA, for which the “PBM E-score” value was -0.134.

For CGATCTCC, the “PBM E-score” value is -0.0956. Turning to GCTCTATA, the “PBM E-score” value is -0.184.

As for AGTCCTGA, the “PBM E-score” value is -0.047.

Take AATGGACT: the “PBM E-score” value is -0.00789. The result for CTGACTGA reads -0.0542.

For AAAGTGGG, the “PBM E-score” value stood at 0.105. Regarding AATTATAT, the “PBM E-score” value stood at 0.138.

For AGAACAAA, the “PBM E-score” value came out at 0.208. For CGCGCGAG the value was 0.245; for CAGCTAGC, 0.025; for AATGGGAT, -0.12.

CACGAGAG: the “PBM E-score” value was determined as 0.0216. The result for CTAATCTC reads -0.0439; that for TCAGCTAA, -0.0154; that for GACCTGAA, 0.0073. With CGCATGTC, the “PBM E-score” value was -0.0691. Take GATACATA: the “PBM E-score” value came out at 0.246. For CGGAACCG the value was -0.162. For CGTAACCA, the “PBM E-score” value is -0.157.

As for CCTTCCCC, the “PBM E-score” value was -0.0629. The result for ACACCAGA reads -0.0233.

On to CCAAGGGC, for which the “PBM E-score” value is -0.0903. As for AAACGTTA, the “PBM E-score” value is -0.0287. Regarding AAAATCCG, the “PBM E-score” value is -0.0444. Regarding ATACTATA, the “PBM E-score” value came out at 0.0708. For AAAATCGA, the “PBM E-score” value was 0.152. As to GCGTCTGA, the “PBM E-score” value was 0.0277. As to CTGAGGCA, the “PBM E-score” value was -0.167. As to CAACTCAA, the “PBM E-score” value is 0.0587. The result for AACGATAT reads 0.175; that for CGATGCGC, -0.0131. For the sequence CGTAAAAG, the “PBM E-score” value turned out to be 0.0729. For the sequence CATTGAGC, the “PBM E-score” value was -0.0461. For TAGTCAAA the value was 0.063; for TTACGGAA, -0.0316. Regarding ACGGTCCT, the “PBM E-score” value is -0.32. For CGAAGAGC the value was -0.0663. With CGATCTTA, the “PBM E-score” value was -0.0263.

Turning to ATGCGCTA, the “PBM E-score” value is -0.0498. On to CCGCGTAA, for which the “PBM E-score” value is -0.169. Consider CTTAAGAC, for which the “PBM E-score” value worked out at 0.0548. In the case of GTTTGCCA, the “PBM E-score” value came out at 0.0694. Consider AAACCCAT, for which the “PBM E-score” value is 0.16. Regarding ACGAGACG, the “PBM E-score” value was -0.0134. The result for AACCGTGT reads 0.164; that for AGTGCCGG, -0.0411.

The values are drawn from the supplement of paper PMC3334620.
